Measured values: US20180030127A1
These are yes or no findings as the source states them, for the method shown. Some binding calls cover weakened binding; strength is not graded here.

The chains behind the UniProt entries cited, without tags or fusion partners. Residues count along the entry.
UniProt P07724, residues 25-608: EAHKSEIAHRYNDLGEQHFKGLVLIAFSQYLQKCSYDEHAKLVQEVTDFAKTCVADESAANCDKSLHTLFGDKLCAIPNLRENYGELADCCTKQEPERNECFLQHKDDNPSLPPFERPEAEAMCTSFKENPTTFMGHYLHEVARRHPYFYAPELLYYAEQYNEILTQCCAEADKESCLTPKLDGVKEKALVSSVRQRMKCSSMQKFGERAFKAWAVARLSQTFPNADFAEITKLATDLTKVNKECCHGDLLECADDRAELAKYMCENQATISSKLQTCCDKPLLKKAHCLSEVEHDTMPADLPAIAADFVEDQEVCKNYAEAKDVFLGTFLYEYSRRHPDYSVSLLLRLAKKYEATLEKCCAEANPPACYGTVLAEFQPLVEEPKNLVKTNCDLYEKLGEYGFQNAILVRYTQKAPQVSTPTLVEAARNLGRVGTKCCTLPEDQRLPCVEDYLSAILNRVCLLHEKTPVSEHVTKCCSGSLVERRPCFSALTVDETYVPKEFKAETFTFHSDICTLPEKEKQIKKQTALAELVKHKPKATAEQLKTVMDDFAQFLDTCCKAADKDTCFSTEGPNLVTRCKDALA

What was measured:
[1] = target: mouse serum albumin (mouse) (UniProt P07724); experiment: monoclonal phage ELISA, pH 6 and pH 7.4
[2] = target: mouse serum albumin (mouse) (UniProt P07724); experiment: ELISA, soluble Fab, antigen coated at 5 µg/ml
[3] = target: mouse serum albumin (mouse) (UniProt P07724); experiment: ELISA, purified soluble Fab, antigen coated at 5 µg/ml, pH 6 and pH 7.4
[4] = target: mouse serum albumin (mouse) (UniProt P07724); experiment: ELISA at pH 6.0: purified soluble Fab titrated on antigen coated at 5 ug/ml; anti-human kappa L chain pAb-HRPO, TMB, A450
[5] = target: mouse serum albumin (mouse) (UniProt P07724); experiment: ELISA at pH 7.4: purified soluble Fab titrated on antigen coated at 5 ug/ml; anti-human kappa L chain pAb-HRPO, TMB, A450
[6] = target: mouse serum albumin (mouse) (UniProt P07724); experiment: monoclonal phage ELISA at pH 6: Fab on phage, about 10^8 CFU/well, on antigen coated at 5 ug/ml; anti-human kappa-HRPO, TMB, A450
[7] = target: mouse serum albumin (mouse) (UniProt P07724); experiment: monoclonal phage ELISA at pH 7.4: Fab on phage, about 10^8 CFU/well, on antigen coated at 5 ug/ml; anti-human kappa-HRPO, TMB, A450

Measured: binding

B1: SL335 (Fab, V domains shown)
VH: QVQLVQSGGGPVKPGGSLRLSCAASGFMFRAYSMNWVRQAPGKGLEWVSSISSSGRYIHYADSVKGRFTISRDNAKNSLYLQMNSLRAEDTAVYYCARETVMAGKALDYWGQGTLVTVSS
VL: ELVLTQSPGTLSLSPGETATLSCRASQSVGSNLAWYQQKPGQAPRLLIYGASTGATGVPARFSGSRSGTDFTLTITSLQPEDFATYYCQQYYSFLAKTFGQGTQLEIKR
binds: [1] | [2] | [3] | [4] | [5] | [6] | [7]
